Primary screen of a compound library

By UniProt entry, the sequences of proteins in these tests, tags left out. Residues count along the entry.
UniProt P9WNZ1, whole entry: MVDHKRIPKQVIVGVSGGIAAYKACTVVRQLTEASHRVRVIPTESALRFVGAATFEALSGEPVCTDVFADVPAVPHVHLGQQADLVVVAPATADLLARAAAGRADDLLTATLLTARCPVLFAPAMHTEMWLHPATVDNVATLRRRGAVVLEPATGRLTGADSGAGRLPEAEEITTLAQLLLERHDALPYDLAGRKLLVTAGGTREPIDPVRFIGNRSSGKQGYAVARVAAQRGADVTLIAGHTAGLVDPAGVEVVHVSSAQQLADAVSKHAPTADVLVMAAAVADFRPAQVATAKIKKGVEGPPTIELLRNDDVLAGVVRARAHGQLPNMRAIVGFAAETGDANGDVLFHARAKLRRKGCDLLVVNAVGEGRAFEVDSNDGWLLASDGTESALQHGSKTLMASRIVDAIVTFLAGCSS
UniProt I6X8D2, whole entry: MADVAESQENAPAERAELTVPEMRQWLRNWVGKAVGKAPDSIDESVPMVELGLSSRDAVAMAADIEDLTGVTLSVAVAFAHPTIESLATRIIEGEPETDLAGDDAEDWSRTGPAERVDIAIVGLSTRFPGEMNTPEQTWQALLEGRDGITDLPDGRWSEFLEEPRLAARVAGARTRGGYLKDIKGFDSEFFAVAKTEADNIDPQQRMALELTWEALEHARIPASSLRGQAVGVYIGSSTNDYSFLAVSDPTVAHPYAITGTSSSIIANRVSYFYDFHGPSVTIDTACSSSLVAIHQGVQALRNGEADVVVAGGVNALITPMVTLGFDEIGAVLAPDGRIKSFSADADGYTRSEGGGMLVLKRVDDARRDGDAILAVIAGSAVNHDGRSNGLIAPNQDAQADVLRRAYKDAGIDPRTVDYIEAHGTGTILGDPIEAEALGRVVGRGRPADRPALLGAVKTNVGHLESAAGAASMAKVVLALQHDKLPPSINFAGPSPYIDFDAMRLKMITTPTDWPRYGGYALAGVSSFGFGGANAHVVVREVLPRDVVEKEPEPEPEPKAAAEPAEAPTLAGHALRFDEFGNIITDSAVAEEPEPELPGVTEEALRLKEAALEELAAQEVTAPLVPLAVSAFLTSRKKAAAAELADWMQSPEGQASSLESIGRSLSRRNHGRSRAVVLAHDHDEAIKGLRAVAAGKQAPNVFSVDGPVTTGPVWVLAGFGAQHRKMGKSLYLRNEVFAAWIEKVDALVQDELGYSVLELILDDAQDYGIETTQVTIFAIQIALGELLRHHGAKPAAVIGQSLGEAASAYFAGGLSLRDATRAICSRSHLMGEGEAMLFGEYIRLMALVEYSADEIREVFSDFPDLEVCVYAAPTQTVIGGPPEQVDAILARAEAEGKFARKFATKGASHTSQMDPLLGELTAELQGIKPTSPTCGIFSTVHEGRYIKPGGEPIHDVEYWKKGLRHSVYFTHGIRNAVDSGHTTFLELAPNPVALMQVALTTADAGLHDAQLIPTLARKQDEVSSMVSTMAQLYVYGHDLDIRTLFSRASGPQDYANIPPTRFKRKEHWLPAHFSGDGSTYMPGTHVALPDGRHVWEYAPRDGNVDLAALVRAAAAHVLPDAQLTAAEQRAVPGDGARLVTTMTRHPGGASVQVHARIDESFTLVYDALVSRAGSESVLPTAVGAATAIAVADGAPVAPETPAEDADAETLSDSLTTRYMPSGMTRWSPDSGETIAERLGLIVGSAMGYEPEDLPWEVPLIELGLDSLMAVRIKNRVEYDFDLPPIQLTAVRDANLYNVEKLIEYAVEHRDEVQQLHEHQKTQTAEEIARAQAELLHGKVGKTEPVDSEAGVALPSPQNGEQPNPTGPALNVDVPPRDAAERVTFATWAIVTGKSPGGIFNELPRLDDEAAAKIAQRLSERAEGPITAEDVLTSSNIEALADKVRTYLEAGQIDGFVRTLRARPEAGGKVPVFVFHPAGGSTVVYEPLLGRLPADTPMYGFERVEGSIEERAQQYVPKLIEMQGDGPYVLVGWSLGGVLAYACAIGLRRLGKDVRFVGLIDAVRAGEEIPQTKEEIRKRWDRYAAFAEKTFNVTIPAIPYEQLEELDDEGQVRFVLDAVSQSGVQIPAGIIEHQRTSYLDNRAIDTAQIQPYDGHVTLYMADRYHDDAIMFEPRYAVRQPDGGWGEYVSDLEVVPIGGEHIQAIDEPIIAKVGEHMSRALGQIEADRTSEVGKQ
UniProt P9WPC5, whole entry: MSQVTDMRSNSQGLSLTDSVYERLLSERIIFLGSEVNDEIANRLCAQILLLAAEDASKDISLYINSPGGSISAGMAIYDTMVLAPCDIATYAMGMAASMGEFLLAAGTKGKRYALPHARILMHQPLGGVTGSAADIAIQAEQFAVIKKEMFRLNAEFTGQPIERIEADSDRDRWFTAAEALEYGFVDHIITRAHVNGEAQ
UniProt P9WPC3, whole entry partner: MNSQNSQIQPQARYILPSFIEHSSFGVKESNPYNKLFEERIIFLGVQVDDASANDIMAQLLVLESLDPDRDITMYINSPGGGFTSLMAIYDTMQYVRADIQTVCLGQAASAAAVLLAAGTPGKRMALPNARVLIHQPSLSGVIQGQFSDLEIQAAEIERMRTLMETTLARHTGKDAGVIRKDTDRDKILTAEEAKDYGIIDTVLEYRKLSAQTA
UniProt A4I591, 1-473: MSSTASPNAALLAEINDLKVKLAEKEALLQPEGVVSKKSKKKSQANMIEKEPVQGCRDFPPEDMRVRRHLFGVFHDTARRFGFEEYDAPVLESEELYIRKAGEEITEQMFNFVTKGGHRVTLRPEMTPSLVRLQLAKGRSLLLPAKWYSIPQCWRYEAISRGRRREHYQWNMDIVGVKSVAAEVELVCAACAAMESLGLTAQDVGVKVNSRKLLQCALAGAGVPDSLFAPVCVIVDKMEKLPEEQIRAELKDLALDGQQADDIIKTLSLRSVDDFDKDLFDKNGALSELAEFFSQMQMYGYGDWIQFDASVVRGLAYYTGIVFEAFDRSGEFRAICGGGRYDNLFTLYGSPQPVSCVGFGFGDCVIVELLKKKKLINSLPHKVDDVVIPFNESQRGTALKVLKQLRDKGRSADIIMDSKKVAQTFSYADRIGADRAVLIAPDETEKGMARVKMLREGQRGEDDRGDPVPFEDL
UniProt P9WFT3, whole entry: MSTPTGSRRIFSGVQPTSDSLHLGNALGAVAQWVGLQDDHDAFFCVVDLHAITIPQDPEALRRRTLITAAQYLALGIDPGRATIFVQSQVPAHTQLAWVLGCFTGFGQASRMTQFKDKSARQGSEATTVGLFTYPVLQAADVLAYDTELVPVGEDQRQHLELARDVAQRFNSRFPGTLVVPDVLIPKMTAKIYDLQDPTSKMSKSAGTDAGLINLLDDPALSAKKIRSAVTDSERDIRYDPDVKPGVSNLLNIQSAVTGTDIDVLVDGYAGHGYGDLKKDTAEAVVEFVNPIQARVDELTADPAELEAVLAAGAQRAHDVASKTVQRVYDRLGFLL

A: 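Enzyme assay of CoaBC with a phosphate dye (Biomol Green) read at 650 nm. Target: Coenzyme A biosynthesis protein CoaBC, Mycobacterium tuberculosis (UniProt P9WNZ1). Concentration: 30 µM. Direction is inferred from only a few compounds that gave an IC50; most scored high, so higher reads as stronger inhibition. Most strong results did not repeat in a second test. Of about 67,000 compounds tested this way, about 40 (0.06%) reached 50% or more in at least one test.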
B: 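Enzyme assay of the thioesterase domain of polyketide synthase 13; the read-out is not stated. Target: Polyketide synthase Pks13, Mycobacterium tuberculosis (UniProt I6X8D2). Concentration: 30 µM. Higher reads as stronger inhibition (inferred from which compounds were picked for retests). Of about 67,000 compounds tested this way, about 300 (0.46%) reached 50% or more in at least one test.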
C: 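ClpP1P2, Mycobacterium tuberculosis (UniProt P9WPC5 and UniProt P9WPC3). Protease assay of ClpP1P2, read by the AMC dye that it sets free. Concentration: 50 µM. Higher reads as stronger inhibition, judged from the few compounds that gave an IC50. Most other retested compounds had strongly negative values. Of about 69,000 compounds tested this way, about 10 (0.015%) reached 50% or more in at least one test.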
D: 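Assay of Toxoplasma gondii numbers, read through their beta-galactosidase reporter with a colour substrate. Tested at 10 µM. Higher reads as fewer parasites (inferred from which compounds were picked for retests). Of about 67,000 compounds tested this way, about 260 (0.38%) reached 50% or more in at least one test.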
E: 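Histidine-tRNA ligase, Leishmania infantum (UniProt A4I591). Enzyme assay of histidyl-tRNA synthetase; the read-out is not stated. Compounds at 30 µM. The record gives no direction; compounds that gave an IC50 in retests scored well above the rest, so higher reads as stronger inhibition. The assay is labelled LdHisRS but filed under L. infantum. Size under these conditions: about 69,000 compounds, about 410 of them at 50% or above in at least one test.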
F: 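Tryptophan-tRNA ligase, Mycobacterium tuberculosis (UniProt P9WFT3). Enzyme assay of tryptophanyl-tRNA synthetase; the read-out is not stated. Tested at 10 µM. Higher most likely means stronger inhibition; the record gives no direction and few retests gave an IC50. Size under these conditions: about 65,000 compounds, about 64 of them at 50% or above in at least one test.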

Values are the deposited “Percent Effect”, in %. The controls that fix the scale are not given in the record; negative values are as filed. This is an unselected part of the compounds tested. A dash means the value is not listed here; it may have been measured.

structure,A,B,C,D,E,F
O=C(NC1(c2nnn(CC3CCCO3)n2)CCCC1)c1ccccc1 (centres unmarked),1.353%,4.905%,-5.502%,-,4.839%,-1.916%
[H][C@@]12CC[C@H](Oc3cccc(F)c3)[C@]1([H])CN(C(=O)c1ncccc1C)C2,-,-,-,-2.036%,-,-
CN1CCOC(C(=O)Nc2ccc3[nH]nnc3c2)C1 (centres unmarked),9.677%,-19.02%,-10.95%,-9.054%,10.53%,-4.47%
[H][C@]12CN(C(=O)c3ccc(C)o3)C[C@@]1([H])OCCN(S(C)(=O)=O)C2,-,-,-,-0.4409%,-,-
c1cc(-c2ccc3c(c2)CCC32CCN(c3nncs3)CC2)ccn1,9.741%,-,-11.66%,-,66.13%,-1.351%
Cc1cccc(N2CCN(CCS(=O)(=O)c3ccc(Br)cc3)CC2)c1C,16.19%,-1.245%,2.335%,-11.61%,21.43%,-1.625%
CC(C(=O)NCc1ccnc(N2CCN(C)CC2)c1)S(C)(=O)=O (centres unmarked),6.21%,-34.98%,-26.73%,-23.92%,16.07%,10.11%
O=C(NCc1cccnc1N1CCCCC1)c1ccc2[nH]nnc2c1,8.908%,-46.3%,-3.088%,-6.092%,34.94%,-3.366%
Cc1cnn(CCNCc2ccc(OCc3cccnc3)cc2)c1,12.85%,8.263%,9.579%,-14.46%,18.26%,-2.045%
COc1ccc2cc(C(=O)N3CCCC3Cn3cc(C)cn3)[nH]c2c1 (centres unmarked),-5.909%,-3.085%,-16.72%,-9.354%,5.357%,-4.802%
CS(=O)(=O)c1ccc(CNC(=O)NCc2cc[nH]n2)cc1,6.02%,-17.81%,3.987%,9.405%,12.4%,-0.9031%
CS(=O)(=O)N1CC2(CCN(C3CCCCC3)CC2)Cc2ccccc21,-2.368%,-7.296%,-5.286%,0.7676%,16.55%,-6.309%
CCc1cn[nH]c1C1CCCN(C(=O)c2cnc(NC(C)C)nc2)C1 (centres unmarked),11.49%,-25.16%,-5.256%,17.79%,13.7%,0%
Cc1ccnc(N2CCN(C[C@]3(O)CCCN4CCCC[C@@H]43)CC2)c1,-11.02%,-18.01%,-2.582%,-,2.857%,1.175%
CN(Cc1ccccc1Cl)C(=O)c1cc(CN2CCC(O)CC2)on1,15.43%,-6.805%,-4.688%,-1.326%,1.075%,1.308%
CC1CCN(CC(O)CN2CCn3c(nnc3C3CC3)C2)CC1 (centres unmarked),-13.61%,-7.626%,7.868%,-2.008%,16.88%,7.087%
Cc1nn(C)c(Oc2ccccc2)c1CNC1CCOc2ccccc21 (centres unmarked),4.536%,-32.96%,-4.96%,-11.51%,12.12%,-3.047%
CN(c1ccc(CNC(=O)c2c[nH]c(=O)c(Cl)c2)cc1)C1CCCCC1,3.782%,-33.99%,4.629%,11.13%,14.53%,-2.23%
Cc1ccc(NC(=O)CNC(C)CN2CCOCC2)c(F)c1 (centres unmarked),0.6036%,-15%,-3.484%,-0.8954%,20.51%,-3.818%
O=C(COc1ccccc1)N1CCC[C@]2(C[C@H](OCC3CC3)CO2)C1,1.648%,-7.968%,-9.223%,-3.215%,20.39%,-1.433%
O=S1(=O)C[C@@H]2[C@H](C1)N(Cc1ncc[nH]1)CCN2CC1CC1,-2.772%,-12.15%,-16.35%,-,15.38%,-3.328%
COCc1nc(CNC2CCCC(C)(C)C2)no1 (centres unmarked),10.17%,-8.233%,6.907%,-43.9%,13.11%,1.288%
CN(CC(F)(F)F)C(=O)COc1nc(Cc2ccc(F)cc2)no1,11.16%,-33.55%,2.63%,-4.59%,4.167%,-2.167%
Cc1cccc(N(CC(=O)N2CCCCC2)Cc2nc(=O)[nH][nH]2)c1,6.855%,-12.85%,-0.2541%,0.4643%,10.53%,-0.3119%
COCc1csc(NC(=O)N2CCC(Cc3cnn(C)c3)C2)n1 (centres unmarked),4.875%,-31.99%,15.97%,-1.914%,8.219%,4.071%
Cc1cc(CN2CCN(C(=O)C3(C#N)CCCC3)CC2)on1,3.846%,-12.01%,-8.821%,-3.169%,12.5%,-0.000005%
O=C(NCCNc1ncccn1)C1CC(=O)N(Cc2ccco2)C1 (centres unmarked),-0.5821%,0.4579%,-28.59%,18.03%,6.14%,1.977%
Cn1ccnc1CN1CC[C@@H](NS(C)(=O)=O)[C@@H]1Cc1ccccc1,1.523%,-12%,-10.3%,-,0%,-2.058%
Cc1cnn(CCCNC(=O)CCC2CCCCN2C)c1 (centres unmarked),1.648%,-22.61%,-11.65%,4.468%,21.52%,3.524%
Cc1ccccc1CC(=O)N1C[C@@H]2COC[C@]2(CN(C)C)C1,-10.92%,-17.68%,0.7339%,-,-76.36%,-2.79%
CN(Cc1cnc(C(C)(C)C)nc1)Cc1nc2ccc(F)cc2[nH]1,7.407%,-6.406%,15.2%,4.265%,18.09%,3.871%
CCCc1nnc(N2CCN(c3cccc(OC)c3)C(=O)C2)o1,1.499%,-1.449%,4.059%,0.6378%,11.67%,15.87%
C=C(C)CN1CCC(NC(=O)Nc2cc(C(N)=O)ccc2OC)CC1,2.244%,-28.21%,-1.705%,2.781%,20.55%,3.439%
O=C(O)C(F)(F)F.O=C(c1ccoc1)N1CCO[C@]2(CCC[C@@H]2COCc2cccnc2)C1,-,-,-,1.014%,-,-
COc1ccccc1C(=O)N1Cc2cc(C)ccc2OCC1CN(C)C (centres unmarked),0%,-41.03%,1.856%,-,13.89%,-2.926%
N[C@@H](Cc1ccccc1)c1nnc(S(=O)(=O)Cc2ccc(Cl)cc2)o1,-0.7264%,-21.7%,-10.32%,-,-2.174%,-1.075%
c1nc2c(c(C3CC3)n1)CCN(Cc1ccc3c(c1)OCO3)CC2,9.677%,-15.86%,-2.25%,-,11.43%,-1.891%
CN(CCCNC(=O)c1ccccc1OCC(N)=O)CC(F)(F)F,1.364%,-19.34%,-1.104%,5.312%,-2.74%,-1.636%
Cn1cc(CN2CCC(F)(F)C3(CCN(c4cnccn4)C3)C2)cn1 (centres unmarked),0.207%,14.28%,0.9796%,-,13.46%,2.627%
Cc1nc(NCc2cccc(F)c2)cc(C2CCNCC2)n1,1.425%,-5.4%,-2.921%,-,1.408%,0.3397%
[H][C@]12CN(C(C)C)CCN1C(=O)N(C1CCCCC1)C2,-,-,-,15.59%,-,-
O=C(c1ccc[nH]1)N1CCC2(CCCN2Cc2cccnc2)CC1,1.018%,16.36%,1.008%,-,10.53%,-1.262%
[H][C@@]12CS(=O)(=O)C[C@]1([H])NCCN2C(=O)COc1ccccc1N1CCCC1,-,-,-,-36.7%,-,-
CN(Cc1cnn(C)c1)C1CCN(c2cccc(-c3cscn3)c2)CC1,-8.848%,-40.68%,-5.14%,-2.363%,11.83%,-2.716%
CC(C)NC(=O)c1nnn(-c2cccc(C(F)(F)F)c2)c1N,-8.861%,-91.15%,-6.073%,4.711%,2.885%,-5.118%
O=C(NCCn1ccnc1)NCc1ccc(N2CCCCCC2)nc1,-14.26%,-43.9%,5.538%,7.493%,23.81%,0.7498%
Cc1cc(C(=O)N2CCCC(c3ccc(C(=O)O)cc3)C2)c(C)o1 (centres unmarked),6.399%,-7.914%,-7.39%,1.128%,8.434%,0.306%
CCC(C)N1Cc2c(C(=O)N3CCCC3)nn(C)c2C1.O=C(O)C(F)(F)F (centres unmarked),-,-,-,-1.223%,-,-
CC(C)(C)n1c(NC(=O)CNC(=O)NC2CC2)nc2ccccc21,5.976%,-11.52%,-6.152%,-7.949%,27.4%,-7.354%
[H][C@]12CC[C@]([H])(CN(S(=O)(=O)N(C)C)C1)N(C/C=C/c1ccc(F)cc1)C2,-,-,-,-22.86%,-,-
Cc1noc(C)c1CN(C)CC(=O)/N=c1\cc[nH]n1C(C)C1CC1 (centres unmarked),-0.9804%,-27.23%,26.67%,-1.959%,17.78%,-0.8642%
CCn1c(C)cc(C(=O)N2CCCC(n3ccnc3C)C2)c1C (centres unmarked),5.138%,-23.31%,17.66%,9.336%,19.18%,6.107%
CC(C)C(=O)N1CC[C@H]2N(C)CC[C@@]2(C(=O)Nc2ccccc2)CC1,3.713%,-17.09%,-10.11%,-,2.703%,-

From ChEMBL document CHEMBL3988442, “University of Dundee, Small-Polar-MMV Screening Library” (2021).